A short description of this experiment: qHTS Assay for Modulators of Lamin A Splicing. The conditions noted are these: HeLa LMNA splicing GFP/RFP minigene ratio, 48 h. The method, boiled down:
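Read-out is the ratio of GFP to DsRed2 object intensity, acquired by 488 nm laser-scanning cytometry on HeLa lamin A-EGFP minigene reporter cells. Compound incubation 48 hrs at 37 °C in Opti-MEM with 2% FBS; DMSO 0.5% final.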

Where [1] appears, read: measured here: GFP splicing reporter channel.
Setting [2] is: measured here: RFP viability control channel.

The source of these data is PubChem BioAssay AID1487 (National Center for Advancing Translational Sciences (NCATS), 2009).

“And” between values parts separate entries of the source, which are not always exact repeats. Equal entries are not always repeated. Some of the results follow. The main result of the screen is listed elsewhere. These columns were measured beside it and carry no call. Compounds called inactive in the main read-out are mostly missing here. The note in brackets gives the kind of curve behind each potency; many fits are weak.

Broadly, the AC50 is the concentration giving half of the maximal activity seen. For the molecule `CCOC(=O)c1cc2c(cn1)[nH]c1ccccc12`, the AC50 was 0.0355 µM [falling, full curve, poor fit] under setting [1] and 35.5 µM [falling, partial curve, poor fit] under setting [2].

Take `NC[C@@H](CC(=O)O)c1ccc(Cl)cc1`: the AC50 was 0.141 µM [falling, full curve, poor fit] under setting [1] and 2.51 µM [falling, full curve, poor fit] under setting [2].

Turning to `CCC(=NCCc1c[nH]c2ccccc12)c1c(O)n(C)c(=O)n(C)c1=O`, under setting [2], the AC50 was 6.31 µM [rising, partial curve].

In the case of `CC(C)c1ccc2[nH]c(O)c(N=NC(=O)c3cccc(S(=O)(=O)Nc4ccc(Cl)cc4)c3)c2c1`, the AC50 under setting [2] is 20 µM [falling, partial curve, poor fit].

For `NNC(N)=O`, under setting [2], the half-maximal activity concentration (AC50) was 5.62 µM [falling, single point].

As for `CC(=O)c1ccc(Oc2nc(C)nc3c2oc2ccccc23)cc1`, under setting [2], the AC50 is 6.31 µM [falling, partial curve, poor fit].

Turning to `COC(=O)C1=CCCN(C)C1`, the AC50 under setting [1] is 4.47 µM [rising, full curve, poor fit] and the AC50 under setting [2] is 1 µM [falling, partial curve, poor fit].

Take `C=C(C)[C@H]1Cc2c(ccc3c2O[C@@H]2COc4cc(OC)c(OC)cc4[C@@H]2C3=O)O1`: the half-maximal activity concentration (AC50) under setting [1] was 126 nM [rising, full curve, poor fit] and 1 µM [falling, full curve]; the concentration at half-maximal activity (AC50) under setting [2] is 501 nM [rising, full curve] and 891 nM [falling, full curve].

In the case of `O=C(NC1(C(F)(F)F)Oc2ccc(Cl)cc2O1)N1CCC2(CC1)OCCO2` (stereo not given), the AC50 under setting [2] is 17.8 µM [rising, single point].

For `N[C@@H](CCl)C(=O)O`, the AC50 under setting [2] is 6.31 µM [falling, single point].

As for `Fc1ccc(C(OCCN2CCN(CCCc3ccccc3)CC2)c2ccc(F)cc2)cc1`, the AC50 reads like this: under setting [1], 7.94 µM [falling, partial curve] and 11.2 µM [falling, partial curve]; under setting [2], 7.08 µM [falling, partial curve, poor fit] and 4.47 µM [falling, full curve, poor fit].

For the molecule `CC(C)(C)NCC(O)c1cc(Cl)c(N)c(Cl)c1` (stereo not given), the AC50 is, setting by setting: under setting [1], 3.55 µM [falling, partial curve]; under setting [2], 10 µM [rising, single point].

Regarding `CC(C)[C@@]1(NC(=O)[C@H]2CC3c4cccc5[nH]cc(c45)C[C@H]3N(C)C2)O[C@@]2(O)C3CCCN3C(=O)[C@@H](Cc3ccccc3)N2C1=O` (stereo not given in full), the AC50 under setting [2] was 0.0631 µM [rising, full curve, poor fit].

As to `O=c1[nH]c(=O)n(C2CCCCC2)c(O)c1C=Nc1ccc(N2CCOCC2)cc1`, the AC50 under setting [2] was 0.00447 µM [falling, full curve, poor fit].

Regarding `CC(C)[C@@]1(NC(=O)[C@@H]2C[C@H]3c4cccc5[nH]cc(c45)C[C@@H]3N(C)C2)O[C@]2(O)[C@H]3CCCN3C(=O)CN2C1=O`, the AC50 under setting [2] was 3.55 µM [rising, partial curve].

Take `CCOC(=O)c1sc(/N=C/c2c(O)n(-c3cccc(C)c3)c(=O)[nH]c2=O)c(C#N)c1C`: under setting [1], the AC50 is 14.1 µM [falling, single point].

In the case of `CCCOP(=O)(OCCC)C(NC(=O)c1cc(OC)c(OC)c(OC)c1)c1ccccc1` (stereo not given), the AC50 is 2.82 µM [falling, partial curve, poor fit] under setting [1] and 35.5 µM [rising, single point] under setting [2].

Consider `COC(=O)C[C@]1(C(=O)OC)CN(C#N)N(c2ccc(Cl)cc2)C12c1ccccc1-c1ccccc12`, for which the AC50 under setting [1] is 3.55 µM [falling, full curve] and the AC50 under setting [2] was 4.47 µM [falling, full curve].

Consider `COC(=O)C(c1ccccc1)N1CCCCCC1` (stereo not given), for which the AC50 was 3.98 µM [rising, partial curve] under setting [1] and 3.98 µM [rising, single point] under setting [2].

On to `CN1C2CCC1CC(OC(=O)c1ccc(Cl)cc1)C2` (stereo not given), for which the AC50 was 0.0282 µM [falling, full curve, poor fit] under setting [1] and 0.0282 µM [falling, full curve, poor fit] under setting [2].

For `Cc1c(OCC(F)(F)F)ccnc1CS(=O)c1nc2ccccc2[nH]1` (stereo not given), the AC50 is 112 nM [falling, full curve, poor fit] and 89.1 nM [falling, full curve, poor fit] and 3.98 µM [rising, partial curve, poor fit] under setting [1]; 126 nM [falling, full curve, poor fit] and 20 µM [rising, single point] under setting [2].

Regarding `COc1ccc2c(c1OC)CN1CCc3cc4c(cc3[C@H]1C2)OCO4`, the AC50 by setting is: under setting [1], 0.631 µM [falling, full curve, poor fit]; under setting [2], 0.355 µM [falling, full curve, poor fit].

With `Nc1nc(F)nc2c1ncn2[C@@H]1O[C@H](CO)[C@@H](O)[C@@H]1O`, the AC50 under setting [1] is 31.6 µM [rising, single point] and the AC50 under setting [2] was 35.5 µM [rising, single point].

On to `CCOP(=O)(OCC)C(NC(=O)Nc1ccc(C)c(Cl)c1)c1ccccc1` (stereo not given), for which the AC50 by setting is: under setting [1], 15.8 µM [rising, single point]; under setting [2], 20 µM [rising, single point].

Regarding `CCCCCn1c(=O)c(C(=O)Nc2c(C)n(C)n(-c3ccccc3)c2=O)c(O)c2ccccc21`, the half-maximal activity concentration (AC50) under setting [1] is 7.08 µM [falling, partial curve].

For the molecule `CCc1ccccc1NC(=O)C(CC)Oc1ccccc1-c1nnc(-c2ccccc2)o1` (stereo not given), the AC50 was 0.00891 µM [falling, full curve, poor fit] under setting [1] and 0.00501 µM [falling, full curve, poor fit] under setting [2].

With `CC(=O)c1ccccc1NC(=O)C1C2CCC(O2)C1C(=O)O` (stereo not given), the half-maximal activity concentration (AC50) reads like this: under setting [1], 35.5 µM [rising, single point]; under setting [2], 35.5 µM [rising, single point].

Turning to `CCc1nc(SC)ncc1C(=O)Nc1ccc(Cl)cc1C(=O)c1ccccc1`, the AC50 under setting [2] was 17.8 µM [rising, single point].

For the molecule `CC(C)CCN1CCN(Cc2c(F)cccc2Cl)CC1CCO` (stereo not given), under setting [2], the AC50 was 0.0355 µM [falling, full curve].
